Results published in PMC5059712.
Results are given in words; binding and its absence hold for the method and conditions named. In cells and extracts the contact can be indirect. Some entries that bind do so weakly or less than the wild type.

Chains of the proteins cited; added tags and fusions are not shown.
UniProt P35637: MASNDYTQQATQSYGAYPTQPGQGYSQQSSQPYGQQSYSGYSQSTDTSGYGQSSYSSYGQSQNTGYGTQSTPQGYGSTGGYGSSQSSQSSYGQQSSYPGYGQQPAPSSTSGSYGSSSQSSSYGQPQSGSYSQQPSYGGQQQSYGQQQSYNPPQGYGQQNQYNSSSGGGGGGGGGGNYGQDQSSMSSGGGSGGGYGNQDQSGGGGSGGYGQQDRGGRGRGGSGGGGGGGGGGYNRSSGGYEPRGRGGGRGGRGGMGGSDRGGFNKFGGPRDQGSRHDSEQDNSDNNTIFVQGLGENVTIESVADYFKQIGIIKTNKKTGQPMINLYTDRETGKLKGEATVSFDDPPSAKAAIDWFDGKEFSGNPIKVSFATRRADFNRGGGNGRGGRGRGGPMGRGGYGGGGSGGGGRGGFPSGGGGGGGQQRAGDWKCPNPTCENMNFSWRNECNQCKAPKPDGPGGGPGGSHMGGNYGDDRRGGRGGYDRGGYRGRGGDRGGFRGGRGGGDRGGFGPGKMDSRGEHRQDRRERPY

Target: FUS, endogenous in HEK293 (human (endogenous in HEK293)) (UniProt P35637)
Experiment: co-IP; HEK293 lysates after sonication (sheared chromatin), immunoprecipitated with anti-FUS antibody or control IgG, Western blot for the endogenous partners; FUS-SAFB1 also tested with RNase treatment of the immune complexes

B1: Matrin3, endogenous in HEK293 (protein, UniProt P43243 1-847)
chain: MSKSFQQSSLSRDSQGHGRDLSAAGIGLLAAATQSLSMPASLGRMNQGTARLASLMNLGMSSSLNQQGAHSALSSASTSSHNLQSIFNIGSRGPLPLSSQHRGDADQASNILASFGLSARDLDELSRYPEDKITPENLPQILLQLKRRRTEEGPTLSYGRDGRSATREPPYRVPRDDWEEKRHFRRDSFDDRGPSLNPVLDYDHGSRSQESGYYDRMDYEDDRLRDGERCRDDSFFGETSHNYHKFDSEYERMGRGPGPLQERSLFEKKRGAPPSSNIEDFHGLLPKGYPHLCSICDLPVHSNKEWSQHINGASHSRRCQLLLEIYPEWNPDNDTGHTMGDPFMLQQSTNPAPGILGPPPPSFHLGGPAVGPRGNLGAGNGNLQGPRHMQKGRVETSRVVHIMDFQRGKNLRYQLLQLVEPFGVISNHLILNKINEAFIEMATTEDAQAAVDYYTTTPALVFGKPVRVHLSQKYKRIKKPEGKPDQKFDQKQELGRVIHLSNLPHSGYSDSAVLKLAEPYGKIKNYILMRMKSQAFIEMETREDAMAMVDHCLKKALWFQGRCVKVDLSEKYKKLVLRIPNRGIDLLKKDKSRKRSYSPDGKESPSDKKSKTDGSQKTESSTEGKEQEEKSGEDGEKDTKDDQTEQEPNMLLESEDELLVDEEEAAALLESGSSVGDETDLANLGDVASDGKKEPSDKAVKKDGSASAAAKKKLKKVDKIEELDQENEAALENGIKNEENTEPGAESSENADDPNKDTSENADGQSDENKDDYTIPDEYRIGPYQPNVPVGIDYVIPKTGFYCKLCSLFYTNEEVAKNTHCSSLPHYQKLKKFLNKLAEERRQKKET
- binding: binds
